The target in the series is T1, MBD6 MBD domain-MBP-His (Homo sapiens) (UniProt Q96DN6).
T1 sequence (looked up): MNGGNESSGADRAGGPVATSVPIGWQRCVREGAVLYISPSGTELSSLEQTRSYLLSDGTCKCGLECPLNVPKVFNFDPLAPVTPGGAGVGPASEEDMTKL
Kind of series: EMSA. Conditions: 0-100 uM protein, recombinant protein, residues 1-100, protein details: C-terminal MBP-6xHis, label: 5' 6-FAM, single-stranded DNA. A general note: Mobility shift assays separate free from complexed probe on a gel.

A weaker result is weaker than the reference pair of the same experiment. Tags and fusion partners may be left off the protein sequences shown.

For the sequence “TATGACCTGCGGTATGACCTGCGGTATGACCTGCGG [p1-hm5C (ss)]”, the binding result (5-hydroxymethyl-dC at positions 7, 19, 31) was “binds more weakly”.

In the case of “TATGACCTGCGGTATGACCTGCGGTATGACCTGCGG [p1-C (ss)]”, the binding result was “binds more weakly”.

(Values after article PMC11499264, “RNA m5C oxidation by TET2 regulates chromatin state and leukaemogenesis”.)
